Data: PMC2860243
No constants are given. Whether binding was seen depends on the method and setting. Binding seen in cells or lysates may run through a third protein. These calls come from enrichment with a bait or labelling near it, and not all partners need be listed. For some assays here: Tags and fused reporters may be left off the sequences shown. Values belong to the binder of their own block, whether it stands above or below them.

Sequences of proteins named here, by UniProt entry; tags and fusion partners are left off.
UniProt P20263: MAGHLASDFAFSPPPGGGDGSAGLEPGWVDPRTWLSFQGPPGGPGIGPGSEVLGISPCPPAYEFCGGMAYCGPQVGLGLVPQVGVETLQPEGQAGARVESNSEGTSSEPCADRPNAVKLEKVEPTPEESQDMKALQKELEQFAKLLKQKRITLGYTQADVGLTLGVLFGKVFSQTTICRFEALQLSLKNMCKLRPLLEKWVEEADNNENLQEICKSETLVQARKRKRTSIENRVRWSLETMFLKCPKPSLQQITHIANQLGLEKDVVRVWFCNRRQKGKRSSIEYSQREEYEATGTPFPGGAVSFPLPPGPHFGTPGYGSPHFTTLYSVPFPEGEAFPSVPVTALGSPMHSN

Legend:
[1] = target: T1, FLAG-tagged Esrrb (F-Esrrb) (mouse) (UniProt Q61539); assay: affinity purification with mass spectrometry; FLAG-affinity purification of F-Sall4, F-Dax1, F-Tcfcp2l1 or F-Esrrb from nuclear extract of ZHBTc4-derived ESC clones, buffer C-100, Benzonase, FLAG peptide elution; two purifications each without and with doxycycline (16 hr, Oct4 removed); hits present in both -Dox purifications
T1 sequence: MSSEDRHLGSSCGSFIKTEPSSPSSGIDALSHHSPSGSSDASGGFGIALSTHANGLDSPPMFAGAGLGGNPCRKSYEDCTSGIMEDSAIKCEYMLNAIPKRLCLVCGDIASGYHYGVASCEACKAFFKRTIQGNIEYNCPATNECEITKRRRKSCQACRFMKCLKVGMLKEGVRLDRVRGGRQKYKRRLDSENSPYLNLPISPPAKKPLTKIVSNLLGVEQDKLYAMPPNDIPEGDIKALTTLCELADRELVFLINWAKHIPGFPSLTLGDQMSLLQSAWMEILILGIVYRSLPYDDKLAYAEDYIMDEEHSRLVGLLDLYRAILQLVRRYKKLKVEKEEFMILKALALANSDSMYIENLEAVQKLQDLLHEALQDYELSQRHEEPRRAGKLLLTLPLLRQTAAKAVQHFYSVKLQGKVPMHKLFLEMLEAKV

[2] = target: T2, FLAG-tagged Tcfcp2l1 (F-Tcfcp2l1) (mouse) (UniProt Q3UNW5); assay: as above
T2 sequence: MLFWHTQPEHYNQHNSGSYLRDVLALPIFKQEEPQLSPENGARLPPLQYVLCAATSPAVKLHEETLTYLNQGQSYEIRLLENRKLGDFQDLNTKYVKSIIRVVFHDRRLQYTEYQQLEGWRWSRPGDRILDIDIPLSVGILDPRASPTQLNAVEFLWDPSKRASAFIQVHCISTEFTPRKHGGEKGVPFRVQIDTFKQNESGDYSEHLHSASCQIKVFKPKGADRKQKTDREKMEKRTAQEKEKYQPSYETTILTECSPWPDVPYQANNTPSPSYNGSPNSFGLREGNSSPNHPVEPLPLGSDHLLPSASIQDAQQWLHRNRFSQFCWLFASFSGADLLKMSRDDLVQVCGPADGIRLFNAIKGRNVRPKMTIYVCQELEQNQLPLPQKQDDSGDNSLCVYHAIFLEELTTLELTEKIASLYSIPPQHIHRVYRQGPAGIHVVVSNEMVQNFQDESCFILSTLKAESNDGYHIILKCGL

[3] = target: Oct4 (Pou5f1) (mouse (endogenous in 46C ESCs)) (UniProt P20263); assay: affinity purification with mass spectrometry; immunoprecipitation of endogenous Oct4 (antibody sc-8628 cross-linked to protein G Sepharose) from 1 ml 46C ESC nuclear extract, Benzonase, washes with C-100*, 4°C, boiled in SDS-loading dye; control goat IgG
[4] = target: FLAG-Oct4 (F-Oct4) (mouse) (UniProt P20263); assay: affinity purification with mass spectrometry; FLAG-affinity purification of F-Oct4 from 1.5 ml ESC nuclear extract on anti-FLAG M2 agarose, buffer C-100 (20 mM HEPES pH 7.6, 100 mM KCl), washes with 0.02% NP-40, Benzonase, 4°C, FLAG peptide elution; three purifications; control ZHBTc4 extract
[5] = target: T3, FLAG-tagged Dax1 (F-Dax1) (mouse) (UniProt Q61066); assay: affinity purification with mass spectrometry; FLAG-affinity purification of F-Sall4, F-Dax1, F-Tcfcp2l1 or F-Esrrb from nuclear extract of ZHBTc4-derived ESC clones, buffer C-100, Benzonase, FLAG peptide elution; two purifications each without and with doxycycline (16 hr, Oct4 removed); hits present in both -Dox purifications
T3 sequence: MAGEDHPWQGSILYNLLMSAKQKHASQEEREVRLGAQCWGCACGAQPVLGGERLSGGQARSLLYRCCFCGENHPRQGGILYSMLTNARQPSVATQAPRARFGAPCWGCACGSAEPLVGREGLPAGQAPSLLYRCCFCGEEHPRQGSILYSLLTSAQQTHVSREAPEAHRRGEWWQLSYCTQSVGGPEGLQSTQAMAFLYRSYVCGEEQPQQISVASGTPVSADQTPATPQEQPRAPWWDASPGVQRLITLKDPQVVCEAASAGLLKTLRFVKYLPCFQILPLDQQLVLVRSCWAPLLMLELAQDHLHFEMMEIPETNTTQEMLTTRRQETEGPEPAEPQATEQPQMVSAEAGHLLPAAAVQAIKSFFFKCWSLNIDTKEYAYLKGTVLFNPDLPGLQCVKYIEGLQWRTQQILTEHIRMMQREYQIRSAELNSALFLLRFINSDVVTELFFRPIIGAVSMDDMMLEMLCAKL

binding [1]: binds | binding [2]: binds | binding [3]: binds | binding [4]: binds
B1: Dax1 (protein, UniProt Q61066 1-472)
chain: T3 sequence

binding [5]: binds | binding [1]: binds | binding [2]: binds | binding [4]: binds
B2: Ogt (enzyme, UniProt Q8CGY8 1-1046)
chain: MASSVGNVADSTEPTKRMLSFQGLAELAHREYQAGDFEAAERHCMQLWRQEPDNTGVLLLLSSIHFQCRRLDRSAHFSTLAIKQNPLLAEAYSNLGNVYKERGQLQEAIEHYRHALRLKPDFIDGYINLAAALVAAGDMEGAVQAYVSALQYNPDLYCVRSDLGNLLKALGRLEEAKACYLKAIETQPNFAVAWSNLGCVFNAQGEIWLAIHHFEKAVTLDPNFLDAYINLGNVLKEARIFDRAVAAYLRALSLSPNHAVVHGNLACVYYEQGLIDLAIDTYRRAIELQPHFPDAYCNLANALKEKGSVAEAEDCYNTALRLCPTHADSLNNLANIKREQGNIEEAVRLYRKALEVFPEFAAAHSNLASVLQQQGKLQEALMHYKEAIRISPTFADAYSNMGNTLKEMQDVQGALQCYTRAIQINPAFADAHSNLASIHKDSGNIPEAIASYRTALKLKPDFPDAYCNLAHCLQIVCDWTDYDERMKKLVSIVAEQLEKNRLPSVHPHHSMLYPLSHGFRKAIAERHGNLCLDKINVLHKPPYEHPKDLKLSDGRLRVGYVSSDFGNHPTSHLMQSIPGMHNPDKFEVFCYALSPDDGTNFRVKVMAEANHFIDLSQIPCNGKAADRIHQDGIHILVNMNGYTKGARNELFALRPAPIQAMWLGYPGTSGALFMDYIITDQETSPAEVAEQYSEKLAYMPHTFFIGDHANMFPHLKKKAVIDFKSNGHIYDNRIVLNGIDLKAFLDSLPDVKIVKMKCPDGGDNPDSSNTALNMPVIPMNTIAEAVIEMINRGQIQITINGFSISNGLATTQINNKAATGEEVPRTIIVTTRSQYGLPEDAIVYCNFNQLYKIDPSTLQMWANILKRVPNSVLWLLRFPAVGEPNIQQYAQNMGLPQNRIIFSPVAPKEEHVRRGQLADVCLDTPLCNGHTTGMDVLWAGTPMVTMPGETLASRVAASQLTCLGCLELIAKSRQEYEDIAVKLGTDLEYLKKIRGKVWKQRISSPLFNTKQYTMELERLYLQMWEHYAAGNKPDHMIKPVEVTESA
